No constants are given. Whether binding was seen depends on the method and setting. Binding seen in cells or lysates may run through a third protein. Some binding calls cover weakened binding; strength is not graded here.
Biological target: SRRM2^tr0 (near-full-length SRRM2 with TagGFP2 inserted at the endogenous locus) (human) (UniProt Q9UQ35)
Test: co-IP

The chains behind the UniProt entries cited, without tags or fusion partners. Residues count along the entry.
UniProt Q9UQ35, residues 1-2748: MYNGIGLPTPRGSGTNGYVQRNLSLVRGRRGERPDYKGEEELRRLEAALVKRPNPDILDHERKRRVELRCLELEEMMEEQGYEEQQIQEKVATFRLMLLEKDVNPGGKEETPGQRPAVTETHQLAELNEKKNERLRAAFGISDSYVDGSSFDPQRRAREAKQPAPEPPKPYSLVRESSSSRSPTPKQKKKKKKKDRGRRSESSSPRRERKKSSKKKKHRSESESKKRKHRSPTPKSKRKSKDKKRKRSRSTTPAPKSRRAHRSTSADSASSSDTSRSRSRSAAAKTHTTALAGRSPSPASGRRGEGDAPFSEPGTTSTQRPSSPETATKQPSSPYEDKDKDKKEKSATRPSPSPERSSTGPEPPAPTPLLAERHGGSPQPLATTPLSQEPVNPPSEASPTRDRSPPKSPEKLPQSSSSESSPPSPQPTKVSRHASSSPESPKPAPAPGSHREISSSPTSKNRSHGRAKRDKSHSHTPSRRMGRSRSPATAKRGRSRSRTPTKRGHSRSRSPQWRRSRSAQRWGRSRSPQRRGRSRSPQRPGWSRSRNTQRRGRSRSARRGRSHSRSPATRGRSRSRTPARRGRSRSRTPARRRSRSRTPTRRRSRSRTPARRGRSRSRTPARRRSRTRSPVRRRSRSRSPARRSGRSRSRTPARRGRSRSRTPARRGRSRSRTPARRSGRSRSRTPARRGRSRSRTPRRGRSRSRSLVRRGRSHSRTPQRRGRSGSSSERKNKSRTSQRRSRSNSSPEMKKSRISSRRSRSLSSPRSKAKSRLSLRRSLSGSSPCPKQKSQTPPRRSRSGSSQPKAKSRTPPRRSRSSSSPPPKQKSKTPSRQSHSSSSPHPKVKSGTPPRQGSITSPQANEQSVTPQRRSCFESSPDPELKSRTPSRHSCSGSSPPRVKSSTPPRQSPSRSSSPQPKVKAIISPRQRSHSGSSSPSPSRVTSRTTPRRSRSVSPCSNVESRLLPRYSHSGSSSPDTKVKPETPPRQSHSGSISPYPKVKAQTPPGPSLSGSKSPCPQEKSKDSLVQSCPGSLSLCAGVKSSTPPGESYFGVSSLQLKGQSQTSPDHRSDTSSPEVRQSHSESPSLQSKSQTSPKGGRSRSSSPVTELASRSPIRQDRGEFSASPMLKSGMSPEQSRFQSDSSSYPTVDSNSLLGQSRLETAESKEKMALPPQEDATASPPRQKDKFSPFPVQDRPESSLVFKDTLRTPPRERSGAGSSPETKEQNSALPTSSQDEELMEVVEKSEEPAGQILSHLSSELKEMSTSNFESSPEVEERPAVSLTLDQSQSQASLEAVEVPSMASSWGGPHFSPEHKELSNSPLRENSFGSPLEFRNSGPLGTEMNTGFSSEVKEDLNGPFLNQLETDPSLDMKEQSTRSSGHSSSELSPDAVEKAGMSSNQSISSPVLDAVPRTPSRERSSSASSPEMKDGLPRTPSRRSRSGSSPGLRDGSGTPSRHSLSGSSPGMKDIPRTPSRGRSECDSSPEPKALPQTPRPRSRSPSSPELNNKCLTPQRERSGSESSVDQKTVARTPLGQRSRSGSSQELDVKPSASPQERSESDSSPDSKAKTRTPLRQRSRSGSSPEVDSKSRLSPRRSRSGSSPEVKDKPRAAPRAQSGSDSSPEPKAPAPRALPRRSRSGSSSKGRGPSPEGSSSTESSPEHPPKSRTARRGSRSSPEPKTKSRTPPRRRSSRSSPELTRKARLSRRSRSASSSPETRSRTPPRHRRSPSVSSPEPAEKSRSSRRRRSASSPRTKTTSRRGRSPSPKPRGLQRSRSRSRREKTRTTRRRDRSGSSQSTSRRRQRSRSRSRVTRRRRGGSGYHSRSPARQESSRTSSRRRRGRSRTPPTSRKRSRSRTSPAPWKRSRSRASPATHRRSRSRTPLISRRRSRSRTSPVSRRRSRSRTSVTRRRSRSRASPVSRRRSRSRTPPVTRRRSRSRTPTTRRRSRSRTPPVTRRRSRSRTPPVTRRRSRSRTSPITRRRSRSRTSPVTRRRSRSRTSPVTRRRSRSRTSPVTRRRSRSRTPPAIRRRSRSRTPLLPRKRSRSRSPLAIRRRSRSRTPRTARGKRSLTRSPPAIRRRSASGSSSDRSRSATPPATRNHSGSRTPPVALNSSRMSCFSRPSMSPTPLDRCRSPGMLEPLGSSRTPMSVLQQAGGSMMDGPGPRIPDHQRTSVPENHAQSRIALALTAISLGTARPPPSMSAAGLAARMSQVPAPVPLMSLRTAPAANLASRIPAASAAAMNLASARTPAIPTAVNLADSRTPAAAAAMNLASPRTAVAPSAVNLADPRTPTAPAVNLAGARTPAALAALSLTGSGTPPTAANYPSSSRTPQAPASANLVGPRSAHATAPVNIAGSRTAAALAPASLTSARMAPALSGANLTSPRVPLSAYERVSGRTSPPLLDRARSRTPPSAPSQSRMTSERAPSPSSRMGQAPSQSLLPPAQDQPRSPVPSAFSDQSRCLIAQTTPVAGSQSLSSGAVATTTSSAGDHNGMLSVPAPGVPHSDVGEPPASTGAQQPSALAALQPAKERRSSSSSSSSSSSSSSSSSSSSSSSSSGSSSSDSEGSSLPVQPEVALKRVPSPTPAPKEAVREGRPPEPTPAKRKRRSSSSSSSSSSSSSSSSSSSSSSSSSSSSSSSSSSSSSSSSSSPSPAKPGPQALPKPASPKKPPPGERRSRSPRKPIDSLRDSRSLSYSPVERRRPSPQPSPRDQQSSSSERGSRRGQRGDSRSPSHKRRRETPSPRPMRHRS

B1: SRRM1 (protein, UniProt Q8IYB3 1-904)
chain: MDAGFFRGTSAEQDNRFSNKQKKLLKQLKFAECLEKKVDMSKVNLEVIKPWITKRVTEILGFEDDVVIEFIFNQLEVKNPDSKMMQINLTGFLNGKNAREFMGELWPLLLSAQENIAGIPSAFLELKKEEIKQRQIEQEKLASMKKQDEDKDKRDKEEKESSREKRERSRSPRRRKSRSPSPRRRSSPVRRERKRSHSRSPRHRTKSRSPSPAPEKKEKTPELPEPSVKVKEPSVQEATSTSDILKVPKPEPIPEPKEPSPEKNSKKEKEKEKTRPRSRSRSKSRSRTRSRSPSHTRPRRRHRSRSRSYSPRRRPSPRRRPSPRRRTPPRRMPPPPRHRRSRSPVRRRRRSSASLSGSSSSSSSSRSRSPPKKPPKRTSSPPRKTRRLSPSASPPRRRHRPSPPATPPPKTRHSPTPQQSNRTRKSRVSVSPGRTSGKVTKHKGTEKRESPSPAPKPRKVELSESEEDKGGKMAAADSVQQRRQYRRQNQQSSSDSGSSSSSEDERPKRSHVKNGEVGRRRRHSPSRSASPSPRKRQKETSPRGRRRRSPSPPPTRRRRSPSPAPPPRRRRTPTPPPRRRTPSPPPRRRSPSPRRYSPPIQRRYSPSPPPKRRTASPPPPPKRRASPSPPPKRRVSHSPPPKQRSSPVTKRRSPSLSSKHRKGSSPSRSTREARSPQPNKRHSPSPRPRAPQTSSSPPPVRRGASSSPQRRQSPSPSTRPIRRVSRTPEPKKIKKAASPSPQSVRRVSSSRSVSGSPEPAAKKPPAPPSPVQSQSPSTNWSPAVPVKKAKSPTPSPSPPRNSDQEGGGKKKKKKKDKKHKKDKKHKKHKKHKKEKAVAAAAAAAVTPAAIAAATTTLAQEEPVAAPEPKKETESEAEDNLDDLEKHLREKALRSMRKAQVSPQS
binding: binds

— paper doi:10.1101/2020.06.19.160762
